Measured values taken from publication doi:10.1101/2024.06.01.596940 (bioRxiv, 2024).
No constants are given. Whether binding was seen depends on the method and setting. For part of these data: Binding seen in cells or lysates may run through a third protein. Some entries that bind do so weakly or less than the wild type. For part of these data: Tags and fused reporters may be left off the sequences shown.

Sequences of proteins named here, by UniProt entry; tags and fusion partners are left off. A change or cut given only in a name is not applied to a line headed by its entry. Residues count along the entry.
UniProt P40224, residues 22-93: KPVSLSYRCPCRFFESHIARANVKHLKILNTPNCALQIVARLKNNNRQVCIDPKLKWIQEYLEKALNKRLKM
UniProt O15218: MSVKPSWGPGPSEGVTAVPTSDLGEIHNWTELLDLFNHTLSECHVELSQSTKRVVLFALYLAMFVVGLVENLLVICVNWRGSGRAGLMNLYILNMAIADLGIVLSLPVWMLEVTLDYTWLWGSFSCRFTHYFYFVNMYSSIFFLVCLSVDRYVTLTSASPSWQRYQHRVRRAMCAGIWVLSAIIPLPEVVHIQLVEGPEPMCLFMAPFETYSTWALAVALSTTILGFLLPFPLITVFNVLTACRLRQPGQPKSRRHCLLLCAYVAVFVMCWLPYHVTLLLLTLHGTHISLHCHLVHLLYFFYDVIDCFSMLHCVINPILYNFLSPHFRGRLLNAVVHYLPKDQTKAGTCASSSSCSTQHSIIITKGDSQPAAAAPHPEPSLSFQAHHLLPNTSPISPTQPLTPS
UniProt P51671, residues 24-97: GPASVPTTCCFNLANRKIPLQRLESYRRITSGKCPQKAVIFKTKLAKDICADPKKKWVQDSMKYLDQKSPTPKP
UniProt P19875, residues 35-107: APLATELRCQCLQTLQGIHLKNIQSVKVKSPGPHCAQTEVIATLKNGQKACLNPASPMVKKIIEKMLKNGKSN
UniProt O00585, residues 24-134: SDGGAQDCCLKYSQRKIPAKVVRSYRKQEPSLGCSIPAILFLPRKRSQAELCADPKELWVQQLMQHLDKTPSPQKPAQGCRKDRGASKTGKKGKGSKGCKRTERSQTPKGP
UniProt Q99731, residues 22-98: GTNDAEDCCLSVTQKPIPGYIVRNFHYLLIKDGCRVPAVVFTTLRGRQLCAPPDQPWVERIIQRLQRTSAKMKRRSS
UniProt Q9ULZ1: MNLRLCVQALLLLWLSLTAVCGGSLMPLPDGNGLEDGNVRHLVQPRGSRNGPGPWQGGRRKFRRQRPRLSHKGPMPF
UniProt P19876, residues 35-107: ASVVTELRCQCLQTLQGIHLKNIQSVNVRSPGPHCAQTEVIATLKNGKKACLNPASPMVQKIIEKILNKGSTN
UniProt P78556, residues 27-96: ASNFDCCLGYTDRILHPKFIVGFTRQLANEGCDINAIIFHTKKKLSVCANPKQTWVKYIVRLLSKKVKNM
UniProt Q9Y258, residues 24-94: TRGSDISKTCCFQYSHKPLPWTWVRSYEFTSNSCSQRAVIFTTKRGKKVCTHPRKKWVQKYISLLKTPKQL
UniProt P02778, residues 22-98: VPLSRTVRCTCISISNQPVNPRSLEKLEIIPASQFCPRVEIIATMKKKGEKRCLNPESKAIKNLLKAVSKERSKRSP

T1: mouse GPR182 (untagged), stably expressed on HEK293T cells (mouse) (UniProt P43142)
T1 sequence: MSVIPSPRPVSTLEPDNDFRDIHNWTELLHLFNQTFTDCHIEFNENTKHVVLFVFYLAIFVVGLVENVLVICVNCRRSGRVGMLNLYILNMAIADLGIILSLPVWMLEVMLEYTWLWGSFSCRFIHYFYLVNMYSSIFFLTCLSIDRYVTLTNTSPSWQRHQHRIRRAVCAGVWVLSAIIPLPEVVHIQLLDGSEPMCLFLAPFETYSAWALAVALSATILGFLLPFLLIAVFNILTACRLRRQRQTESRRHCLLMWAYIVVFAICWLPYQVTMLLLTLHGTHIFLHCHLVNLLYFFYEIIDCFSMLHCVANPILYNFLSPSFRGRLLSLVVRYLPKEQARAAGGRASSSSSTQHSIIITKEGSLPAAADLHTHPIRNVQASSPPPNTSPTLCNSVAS


molecular target: T1, mouse GPR182 (untagged), stably expressed on HEK293T cells (mouse); experiment: flow cytometry on cells

binding | Molecule
binds | mouse CXCL12 labelled with AZ647 (from UniProt P40224 22-93) (ligand)

molecular target: human GPR182 (untagged), stably expressed on HEK293T cells (human) (UniProt O15218); experiment: flow cytometry on cells

binding | Molecule
binds | human CCL11 (from UniProt P51671 24-97) (ligand)
binds | human CXCL2 (from UniProt P19875 35-107) (ligand)
binds | human CCL21 (from UniProt O00585 24-134) (ligand)
binds | human CCL19 labelled with AZ647 (from UniProt Q99731 22-98) (ligand)
binds | apelin-36 (from UniProt Q9ULZ1 42-77) (peptide)
binds | human CXCL3 (from UniProt P19876 35-107) (ligand)
binds | human CCL20 (from UniProt P78556 27-96) (ligand)
binds | human CCL26 (from UniProt Q9Y258 24-94) (ligand)
binds | human CXCL10 (from UniProt P02778 22-98) (ligand)
binds | apelin-31 (from UniProt Q9ULZ1 47-77) (peptide)
binds | apelin-28 (from UniProt Q9ULZ1 50-77) (peptide)
binds | human CCL1 (ligand, UniProt P22362 24-96) KSMQVPFSRCCFSFAEQEIPLRAILCYRNTSSICSNEGLIFKLKRGKEACALDTVGWVQRHRKMLRHCPSKRK
binds | human CCL24 (ligand, UniProt O00175 27-119) VVIPSPCCMFFVSKRIPENRVVSYQLSSRSTCLKAGVIFTTKKGQQFCGDPKQEWVQRYMKNLDAKQKKASPRARAVAVKGPVQRYPGNQTTC
binds | human CXCL16 (ligand, UniProt Q9H2A7) NEGSVTGSCYCGKRISSDSPPSVQFMNRLRKHLRAYHRCLYYTRFQLLSWSVCGGNKDPWVQELMSCLDLKECGHAYSGIVAHQKHLLPTSPPISQASEGASSDIHTPAQMLLSTLQSTQRPTLPVGSLSSDKELTRPNETTIHTAGHSLAAGPEAGENQKQPEKNAGPTARTSAT
binds | human CXCL14 (ligand, UniProt O95715 35-111) SKCKCSRKGPKIRYSDVKKLEMKPKYPHCEEKMVIITTKSVSRYRGQEHCLHPKLQSTKRFIKWYNAWNEKRRVYEE
binds | HSDGIFTDSYSRYRKQMAVKKYLAAVLGKRYKQRVKNK (peptide, UniProt P18509) [PACAP-38]
binds | human XCL1 (ligand, UniProt P47992 22-114) VGSEVSDKRTCVSLTTQRLPVSRIKTYTITEGSLRAVIFITKRGLKVCADPQATWVRDVVRSMDRKSNTRNNMIQTKPTGTQQSTNTAVTLTG
binds | human CCL28 (ligand, UniProt Q9NRJ3 20-127) SEAILPIASSCCTEVSHHISRRLLERVNMCRIQRADGDCDLAAVILHVKRRRICVSPHNHTVKQWMKVQAAKKNGKGNVCHRKKHHGKRNSNRAHQGKHETYGHKTPY
binds | human CXCL9 (ligand, UniProt Q07325 23-125) TPVVRKGRCSCISTNQGTIHLQSLKDLKQFAPSPSCEKIEIIATLKNGVQTCLNPDSADVKELIKKWEKQVSQKKKQKNGKKHQKKKVLKVRKSQRSRQKKTT
binds | human CXCL11 (ligand, UniProt O14625 22-94) FPMFKRGRCLCIGPGVKAVKVADIEKASIMYPSNNCDKIEVIITLKENKGQRCLNPKSKQARLIIKKVERKNF

molecular target: human GPR182 N-terminally fused to Nanoluciferase, stably expressed on HEK293T cells (human) (UniProt O15218); experiment: FRET or BRET

binding | Molecule
binds | apelin-36 (from UniProt Q9ULZ1 42-77) (peptide)
binds | apelin-31 (from UniProt Q9ULZ1 47-77) (peptide)
binds | apelin-28 (from UniProt Q9ULZ1 50-77) (peptide)
binds | HSDGIFTDSYSRYRKQMAVKKYLAAVLGKRYKQRVKNK (peptide, UniProt P18509) [PACAP-38]
binds | human GPR15L (ligand) KRRPAKAWSGRRTRLCCHRVPSPNSTNLKGHHVRLCKPCKLEPEPRLWVVPGALPQV
binds | human CXCL17 (ligand) SSLNPGVARGHRDRGQASRRWLQEGGQECECKDWFLRAPRRKFMTVSGLPKKQCPCDHFKGNVKKTRHQRHHRKPNKHSRACQQFLKQCQLRSFALPL
